Results from PMC10411901, “FIRRM cooperates with FIGNL1 to promote RAD51 disassembly during DNA repair” (Science Advances, 2023).

Chains of the proteins cited; added tags and fusions are not shown.
UniProt Q15154: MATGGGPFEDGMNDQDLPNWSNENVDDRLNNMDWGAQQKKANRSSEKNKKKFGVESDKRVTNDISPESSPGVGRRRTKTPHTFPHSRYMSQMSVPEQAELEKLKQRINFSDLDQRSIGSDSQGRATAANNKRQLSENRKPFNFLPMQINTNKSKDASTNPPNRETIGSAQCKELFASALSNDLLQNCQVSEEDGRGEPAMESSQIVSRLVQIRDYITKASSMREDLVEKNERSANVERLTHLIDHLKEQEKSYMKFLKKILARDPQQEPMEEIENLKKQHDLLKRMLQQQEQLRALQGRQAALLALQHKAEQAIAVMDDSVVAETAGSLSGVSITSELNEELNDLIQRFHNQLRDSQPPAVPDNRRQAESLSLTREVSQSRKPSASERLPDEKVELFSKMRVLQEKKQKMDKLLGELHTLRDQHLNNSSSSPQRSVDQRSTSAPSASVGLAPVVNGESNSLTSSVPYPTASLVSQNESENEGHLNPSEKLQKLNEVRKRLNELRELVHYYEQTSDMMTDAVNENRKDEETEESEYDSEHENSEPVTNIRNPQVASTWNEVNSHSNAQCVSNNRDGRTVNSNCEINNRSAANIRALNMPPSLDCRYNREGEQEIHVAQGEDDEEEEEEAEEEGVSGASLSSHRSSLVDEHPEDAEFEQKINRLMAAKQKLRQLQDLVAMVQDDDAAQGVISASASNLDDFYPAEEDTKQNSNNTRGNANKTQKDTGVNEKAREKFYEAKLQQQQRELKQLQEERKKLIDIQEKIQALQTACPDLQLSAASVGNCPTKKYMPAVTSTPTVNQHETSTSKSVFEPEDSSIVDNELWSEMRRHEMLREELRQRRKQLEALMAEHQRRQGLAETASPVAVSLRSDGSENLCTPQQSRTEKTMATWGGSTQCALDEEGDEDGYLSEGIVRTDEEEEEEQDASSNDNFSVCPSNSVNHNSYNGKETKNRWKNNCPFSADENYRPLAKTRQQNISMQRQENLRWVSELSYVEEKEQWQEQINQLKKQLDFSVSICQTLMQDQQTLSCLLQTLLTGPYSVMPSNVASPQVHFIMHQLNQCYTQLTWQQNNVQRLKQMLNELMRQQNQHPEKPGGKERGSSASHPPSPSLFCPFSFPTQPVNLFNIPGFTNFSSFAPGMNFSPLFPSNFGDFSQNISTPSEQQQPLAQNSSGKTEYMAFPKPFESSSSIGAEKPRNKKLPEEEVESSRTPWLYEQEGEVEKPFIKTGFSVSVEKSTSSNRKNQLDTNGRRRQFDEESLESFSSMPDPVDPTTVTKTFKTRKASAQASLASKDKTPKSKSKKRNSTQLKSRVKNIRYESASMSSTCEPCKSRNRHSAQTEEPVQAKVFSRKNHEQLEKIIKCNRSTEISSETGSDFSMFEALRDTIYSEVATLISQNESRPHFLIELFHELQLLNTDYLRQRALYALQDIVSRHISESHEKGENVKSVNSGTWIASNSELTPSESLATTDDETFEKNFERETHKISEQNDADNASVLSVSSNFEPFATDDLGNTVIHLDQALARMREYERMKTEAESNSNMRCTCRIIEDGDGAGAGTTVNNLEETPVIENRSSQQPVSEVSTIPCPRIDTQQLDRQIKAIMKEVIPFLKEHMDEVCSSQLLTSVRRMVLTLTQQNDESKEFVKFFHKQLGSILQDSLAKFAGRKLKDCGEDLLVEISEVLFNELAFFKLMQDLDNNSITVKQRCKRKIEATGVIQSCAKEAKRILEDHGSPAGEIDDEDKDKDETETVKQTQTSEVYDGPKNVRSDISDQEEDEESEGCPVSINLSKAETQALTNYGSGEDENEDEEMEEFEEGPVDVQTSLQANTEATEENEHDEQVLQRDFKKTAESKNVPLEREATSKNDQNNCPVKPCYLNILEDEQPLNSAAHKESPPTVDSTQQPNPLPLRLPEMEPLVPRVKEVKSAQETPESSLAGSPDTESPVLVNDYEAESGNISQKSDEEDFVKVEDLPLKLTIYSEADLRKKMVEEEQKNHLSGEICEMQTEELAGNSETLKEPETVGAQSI

T1: mTurboID-FIRRM (FIRRM N-terminally tagged with the biotin ligase miniTurbo) (human) (UniProt Q9NSG2)
T1 sequence: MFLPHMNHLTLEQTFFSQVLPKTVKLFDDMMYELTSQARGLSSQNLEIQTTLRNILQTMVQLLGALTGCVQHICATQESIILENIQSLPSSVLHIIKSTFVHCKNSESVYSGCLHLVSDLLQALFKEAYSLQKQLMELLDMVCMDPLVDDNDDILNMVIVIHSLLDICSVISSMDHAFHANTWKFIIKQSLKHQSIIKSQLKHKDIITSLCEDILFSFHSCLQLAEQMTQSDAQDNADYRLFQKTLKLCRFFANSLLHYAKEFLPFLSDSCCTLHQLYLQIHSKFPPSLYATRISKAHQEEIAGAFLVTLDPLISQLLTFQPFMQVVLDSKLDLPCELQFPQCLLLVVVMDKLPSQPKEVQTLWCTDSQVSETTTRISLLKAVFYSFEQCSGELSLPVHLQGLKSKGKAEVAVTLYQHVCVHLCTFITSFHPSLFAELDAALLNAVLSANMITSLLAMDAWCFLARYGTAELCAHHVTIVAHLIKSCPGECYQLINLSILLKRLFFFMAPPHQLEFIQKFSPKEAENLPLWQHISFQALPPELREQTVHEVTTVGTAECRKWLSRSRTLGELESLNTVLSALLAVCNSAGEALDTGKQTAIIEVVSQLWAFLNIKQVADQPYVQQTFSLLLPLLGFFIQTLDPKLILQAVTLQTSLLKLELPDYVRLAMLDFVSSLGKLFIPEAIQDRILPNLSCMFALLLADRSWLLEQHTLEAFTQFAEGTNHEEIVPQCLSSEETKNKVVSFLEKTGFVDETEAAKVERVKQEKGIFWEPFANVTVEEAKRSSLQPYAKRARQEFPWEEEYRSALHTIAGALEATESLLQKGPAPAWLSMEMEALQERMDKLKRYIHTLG


target: T1, mTurboID-FIRRM (FIRRM N-terminally tagged with the biotin ligase miniTurbo) (human); experiment: proximity labelling; mTurboID-FIRRM stably expressed in HEK293 Flp-In cells, steady state, 3 hours of biotin labeling; streptavidin pull-down and mass spectrometry, SAINTexpress against the empty tag

binding	Molecule
binds	pericentriolar material 1 protein (from UniProt Q15154 1-2024)
binds	DNA excision repair protein ERCC6-like (protein, UniProt Q2NKX8 1-1250) MEASRRFPEAEALSPEQAAHYLRYVKEAKEATKNGDLEEAFKLFNLAKDIFPNEKVLSRIQKIQEALEELAEQGDDEFTDVCNSGLLLYRELHNQLFEHQKEGIAFLYSLYRDGRKGGILADDMGLGKTVQIIAFLSGMFDASLVNHVLLIMPTNLINTWVKEFIKWTPGMRVKTFHGPSKDERTRNLNRIQQRNGVIITTYQMLINNWQQLSSFRGQEFVWDYVILDEAHKIKTSSTKSAICARAIPASNRLLLTGTPIQNNLQELWSLFDFACQGSLLGTLKTFKMEYENPITRAREKDATPGEKALGFKISENLMAIIKPYFLRRTKEDVQKKKSSNPEARLNEKNPDVDAICEMPSLSRKNDLIIWIRLVPLQEEIYRKFVSLDHIKELLMETRSPLAELGVLKKLCDHPRLLSARACCLLNLGTFSAQDGNEGEDSPDVDHIDQVTDDTLMEESGKMIFLMDLLKRLRDEGHQTLVFSQSRQILNIIERLLKNRHFKTLRIDGTVTHLLEREKRINLFQQNKDYSVFLLTTQVGGVGLTLTAATRVVIFDPSWNPATDAQAVDRVYRIGQKENVVVYRLITCGTVEEKIYRRQVFKDSLIRQTTGEKKNPFRYFSKQELRELFTIEDLQNSVTQLQLQSLHAAQRKSDIKLDEHIAYLQSLGIAGISDHDLMYTCDLSVKEELDVVEESHYIQQRVQKAQFLVEFESQNKEFLMEQQRTRNEGAWLREPVFPSSTKKKCPKLNKPQPQPSPLLSTHHTQEEDISSKMASVVIDDLPKEGEKQDLSSIKVNVTTLQDGKGTGSADSIATLPKGFGSVEELCTNSSLGMEKSFATKNEAVQKETLQEGPKQEALQEDPLESFNYVLSKSTKADIGPNLDQLKDDEILRHCNPWPIISITNESQNAESNVSIIEIADDLSASHSALQDAQASEAKLEEEPSASSPQYACDFNLFLEDSADNRQNFSSQSLEHVEKENSLCGSAPNSRAGFVHSKTCLSWEFSEKDDEPEEVVVKAKIRSKARRIVSDGEDEDDSFKDTSSINPFNTSLFQFSSVKQFDASTPKNDISPPGRFFSSQIPSSVNKSMNSRRSLASRRSLINMVLDHVEDMEERLDDSSEAKGPEDYPEEGVEESSGEASKYTEEDPSGETLSSENKSSWLMTSKPSALAQETSLGAPEPLSGEQLVGSPQDKAAEATNDYETLVKRGKELKECGKIQEALNCLVKALDIKSADPEVMLLTLSLYKQLNNN
binds	endogenous FIGNL1 (Fidgetin like 1) (protein, UniProt Q6PIW4 1-674) MQTSSSRSVHLSEWQKNYFAITSGICTGPKADAYRAQILRIQYAWANSEISQVCATKLFKKYAEKYSAIIDSDNVESGLNNYAENILTLAGSQQTDSDKWQSGLSINNVFKMSSVQKMMQAGKKFKDSLLEPALASVVIHKEATVFDLPKFSVCGSSQESDSLPNSAHDRDRTQDFPESNRLKLLQNAQPPMVTNTARTCPTFSAPVGESATAKFHVTPLFGNVKKENHSSAKENIGLNVFLSNQSCFPAACENPQRKSFYGSGTIDALSNPILNKACSKTEDNGPKEDSSLPTFKTAKEQLWVDQQKKYHQPQRASGSSYGGVKKSLGASRSRGILGKFVPPIPKQDGGEQNGGMQCKPYGAGPTEPAHPVDERLKNLEPKMIELIMNEIMDHGPPVNWEDIAGVEFAKATIKEIVVWPMLRPDIFTGLRGPPKGILLFGPPGTGKTLIGKCIASQSGATFFSISASSLTSKWVGEGEKMVRALFAVARCQQPAVIFIDEIDSLLSQRGDGEHESSRRIKTEFLVQLDGATTSSEDRILVVGATNRPQEIDEAARRRLVKRLYIPLPEASARKQIVINLMSKEQCCLSEEEIEQIVQQSDAFSGADMTQLCREASLGPIRSLQTADIATITPDQVRPIAYIDFENAFRTVRPSVSPKDLELYENWNKTFGCGK

Results are given in words; binding and its absence hold for the method and conditions named. In cells and extracts the contact can be indirect. A yes stands for co-enrichment or nearness to the bait. Other partners may have been found. Where a sequence is shown, tags or fusion partners need not be part of it.
